Here are results for one substance from article PMC7685970.

In the experiment the target is T1, Shwachman–Bodian–Diamond syndrome (SBDS) protein (mouse (endogenous in FDC.P1)) (UniProt P70122).
T1 sequence: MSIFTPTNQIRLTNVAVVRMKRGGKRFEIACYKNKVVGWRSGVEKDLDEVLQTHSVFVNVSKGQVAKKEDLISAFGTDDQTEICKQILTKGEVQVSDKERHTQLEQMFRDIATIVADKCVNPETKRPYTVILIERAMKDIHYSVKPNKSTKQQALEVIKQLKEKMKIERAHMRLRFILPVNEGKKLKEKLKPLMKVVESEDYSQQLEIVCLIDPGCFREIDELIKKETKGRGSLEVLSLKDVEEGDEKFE
Briefly: co-IP; immunoprecipitation with SBDS antibody from c-KIT/D816V cells, Western blot. On the technique in general: A western blot detects proteins with antibodies after separation by electrophoresis.

These are yes or no findings as the source states them, for the method shown. Binding seen in cells or lysates may run through a third protein. A result given as binding can be weak or reduced; the word gives no strength.

Turning to “PP2A structural subunit (PP2A-A) (mouse (endogenous in FDC.P1))”, the binding result is “binds”.
